The experiment is described as follows: qHTS Assay for Lipid Storage Modulators in Drosophila S3 Cells.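 For cell number change: cells counted by Cell Tracker Red CMTPX staining in the red channel.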 The following applies: BODIPY lipid droplet fluorescence, 18-24 h; for cell number change: measured here: cell count max response, cells fed with added oleic acid. The procedure, abridged: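 Drosophila S3 cells got compounds at several concentrations plus oleic acid (400 uM solution). Laser-scanning cytometry with 488 nm excitation read lipid droplets at 500-530 nm and cells at 575-640 nm. Percent activity was relative to 20 uM Triacsin C.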
A general note: qHTS replaces the single test concentration by a dilution series.

The mark [1] stands for this setting: measured here: lipid fluorescence (Fed channel) AC50, cells fed with added oleic acid.
Where [2] appears, read: measured here: cell number channel AC50, cells fed with added oleic acid.

The structures appear in SMILES notation. The list shows a part of the results. Further columns of the screen follow, without active or inactive calls. Compounds called inactive in the main read-out are mostly missing here. Words in brackets tell the shape of the fitted curve; partial curves, single points and poor fits give uncertain potencies.

Broadly, the AC50 is the concentration at which the activity in the assay is half-maximal. A high value points to weaker potency. Turning to `O=C(Nc1ccccn1)c1cc2cc([N+](=O)[O-])ccc2s1`, the cell number change came out at 23.6%. Further, the AC50 under setting [1] is 5.17 µM [rising, partial curve, poor fit].
Regarding `COc1ccccc1NS(=O)(=O)c1cc(NC(=O)CCc2nc3ccccc3c(=O)[nH]2)ccc1C`, the cell number change was determined as 24.3%. Besides, the AC50 under setting [1] is 1.64 µM [rising, partial curve].
For the compound `CCOc1ccc(NC(=O)CN(C)C(=O)c2cccc(S(=O)(=O)N3CCCC3)c2)cc1OCC`, the cell number change amounted to 11.6%.
As for `COC(=O)c1c(C)[nH]c(C(=O)NCc2ccco2)c1C`, the cell number change worked out at 82.9%. The AC50 under setting [2] was 29.1 µM [rising, single point]. Besides, the AC50 under setting [1] is 16.4 µM [rising, single point].
`CCOC(=O)N1CCN(S(=O)(=O)c2ccc3c(c2)CCN3C(=O)CC)CC1`: the cell number change stood at 16.5%.
For the compound `COc1ccc(NC(=O)C2CCCO2)cc1Cl` (configuration not stated), the cell number change worked out at 17.7%. For the same compound, the AC50 under setting [1] was 29.1 µM [falling, single point].
As to `CC(=O)Cc1nsc(Nc2cccc(C)c2)n1`, the cell number change is -62.8%. Further, the AC50 under setting [2] is 25.9 µM [falling, partial curve, poor fit]. In addition, the AC50 under setting [1] was 13 µM [falling, partial curve].
Turning to `CC(C)(C)OC(=O)N[C@@H](C(=O)OC(C)(C)C)c1ccc(Br)cc1`, the cell number change was -40.3%. Also, the AC50 under setting [2] was 16.4 µM [falling, single point].
As for `COCCN(C(=O)C1CC1)c1nnc(-c2cccc(C)c2)s1`, the cell number change stood at 0.01%. Moreover, the AC50 under setting [1] is 3.66 µM [rising, full curve].
As to `COc1ccc(CNC(=O)CN(c2ccc(C)cc2)S(=O)(=O)c2c(C)nn(C)c2C)cc1`, the cell number change is 11.8%. Also, the AC50 under setting [1] was 29.1 µM [rising, single point].
Take `O=C(COC(=O)CNS(=O)(=O)c1c(Cl)cccc1Cl)Nc1ccccc1Sc1ccccc1`: the cell number change worked out at 50%. Besides, the AC50 under setting [2] is 29.1 µM [rising, single point].
For `CCOC(=O)C1=C(Cc2ccc(F)cc2)C(=O)c2ccccc2C1=O`, the cell number change was -97.1%. Besides, the AC50 under setting [2] is 23.1 µM [falling, single point]. In addition, the AC50 under setting [1] is 20.6 µM [falling, partial curve].
For `COC(=O)CS(=O)(=O)c1cc(Br)cc2c1N(C(C)=O)CC2`, the AC50 is 3.66 µM [rising, partial curve, poor fit] under setting [2] and 1.46 µM [rising, partial curve, poor fit] under setting [1].
Turning to `CC(=O)Nc1ccc(SCC(=O)Nc2cc(C(C)(C)C)nn2-c2ccccc2)cc1`, the cell number change is -11.3%.
`Cc1cc(OCC(=O)N(Cc2ccco2)c2c(N)n(Cc3ccccc3)c(=O)[nH]c2=O)ccc1Cl`: the cell number change is -34.4%. Moreover, the AC50 under setting [2] was 0.164 µM [falling, full curve, poor fit].
As for `CCn1ncc([N+](=O)[O-])c1C(=O)NC1CCCCC1`, the cell number change was 13%. For the same compound, the AC50 under setting [1] is 29.1 µM [rising, single point].
With `COc1ccc(OC)c(S(=O)(=O)NCCOC23CC4CC(CC(C4)C2)C3)c1`, the cell number change turned out to be 27.3%. For the same compound, under setting [1], the AC50 was 16.4 µM [rising, single point].
For `CC(C)CC(=O)Nc1ccc(S(=O)(=O)N2CCCC2)cc1`, the cell number change came to 5.96%.
Take `COc1ccc(-n2c(SCc3cn4c(C)cccc4n3)nc3ccccc3c2=O)cc1OC`: the AC50 by setting is: under setting [2], 0.206 µM [rising, partial curve]; under setting [1], 0.259 µM [rising, partial curve].
In the case of `CC(CN1CCCCC1)C(=O)NN` (configuration not stated), the cell number change is -25.8%. For the same compound, the concentration at half-maximal activity (AC50) under setting [2] was 1.46 µM [falling, full curve, poor fit]. Under setting [1], the AC50 was 14.6 µM [falling, partial curve, poor fit].
In the case of `CCOc1ccc(NC(=O)CSc2ncn[nH]2)c([N+](=O)[O-])c1`, the cell number change worked out at 113%. In addition, the AC50 under setting [2] was 5.8 µM [rising, full curve].
`CSc1ccc(C2C(C(=O)c3ccco3)=C(O)C(=O)N2c2nnc(SC)s2)cc1` (configuration not stated): under setting [1], the AC50 is 6.51 µM [falling, single point].
In the case of `CN(CCOc1ccc(Br)cc1)CC(O)c1ccccc1` (configuration not stated), the AC50 reads like this: under setting [2], 4.11 µM [rising, single point]; under setting [1], 6.51 µM [rising, single point].
Turning to `Brc1ccc(CSc2ncnc3nc[nH]c23)cc1`, the cell number change was -19.2%. Further, under setting [1], the AC50 was 32.6 µM [falling, single point].
Take `CCOc1ccc(/C=N/NC(=O)c2ccc(F)cc2)cc1CN1CC2CC(C1)c1cccc(=O)n1C2` (configuration not stated): the cell number change stood at 10.1%. For the same compound, the AC50 under setting [1] was 0.058 µM [rising, single point].
Turning to `O=C(Nc1ccc(-c2csc(Nc3ccccc3)n2)cc1)c1cc([N+](=O)[O-])cc(C(F)(F)F)c1`, the cell number change was -53.9%. For the same compound, under setting [2], the AC50 was 29.1 µM [falling, single point]. Moreover, the AC50 under setting [1] was 18.4 µM [falling, single point].
Regarding `CCOc1ccc(/C=C/c2nc(C#N)c(NCCCOC)o2)cc1`, the AC50 under setting [1] was 11.6 µM [falling, partial curve].
Regarding `Cc1cc(NC(=O)CSc2nnc(CNc3ccc(F)cc3)n2C2CCCCC2)no1`, the cell number change was determined as 11.3%. Also, the AC50 under setting [1] is 0.58 µM [rising, full curve].
With `NS(=O)(=O)c1ccc(CCNC(=O)c2ccco2)cc1`, the cell number change is -6.61%. Also, the AC50 under setting [1] is 0.164 µM [falling, full curve].
As for `CNC(=O)COC(=O)/C=C/c1cccc(F)c1`, the cell number change amounted to 12.8%. The AC50 under setting [2] is 0.00461 µM [falling, full curve, poor fit].
Turning to `O=C(Cn1c(=O)oc2cc(S(=O)(=O)N3CCCCCC3)ccc21)NC1CCCCCCC1`, the cell number change is -8.39%.
In the case of `Cc1cccc(NC(=O)c2cccc3c2-c2ccccc2C3=O)n1`, the cell number change is -17.8%. Besides, the AC50 under setting [1] was 0.355 µM [falling, single point].
With `CC(Nc1ccc(Cl)c(Cl)c1)C(=O)NN` (configuration not stated), the cell number change turned out to be 10.7%. Besides, under setting [2], the AC50 is 1.84 µM [rising, single point].
On to `COCc1ccc(C(=O)N2CCCCC2C(=O)Nc2ccc(-n3nc(C)cc3C)cc2)o1` (configuration not stated), for which the cell number change was found to be 12.4%. Besides, the AC50 under setting [1] was 0.00461 µM [rising, full curve, poor fit].
Regarding `COC(=O)c1ccc(CNC(=O)CN(CCC(C)C)S(=O)(=O)c2ccc3c(c2)OCCO3)cc1`, the cell number change is -27.1%. Further, under setting [2], the AC50 is 0.651 µM [falling, full curve, poor fit].
On to `O=C(O)C1CCCCC1C(=O)Nc1ccc(S(=O)(=O)N2CCCCCC2)cc1` (configuration not stated), for which the cell number change came to 21.8%. The AC50 under setting [1] is 0.058 µM [falling, full curve, poor fit].
As to `Cc1ccc(NC(=O)N2CCC(O)(c3ccc(Cl)cc3)CC2)cc1`, the cell number change was -51.1%. The AC50 under setting [2] was 11.6 µM [falling, partial curve].

Source of the values: PubChem BioAssay AID2685 (National Center for Advancing Translational Sciences (NCATS), 2010).
